Reference: publication PMC7819943, “Rice protein-binding microarrays: a tool to detect cis-acting elements near promoter regions in rice”
Some of the results follow.

Sequences of proteins named here, by UniProt entry; tags and fusion partners are left off.
UniProt Q0JBA9, entry or part of it: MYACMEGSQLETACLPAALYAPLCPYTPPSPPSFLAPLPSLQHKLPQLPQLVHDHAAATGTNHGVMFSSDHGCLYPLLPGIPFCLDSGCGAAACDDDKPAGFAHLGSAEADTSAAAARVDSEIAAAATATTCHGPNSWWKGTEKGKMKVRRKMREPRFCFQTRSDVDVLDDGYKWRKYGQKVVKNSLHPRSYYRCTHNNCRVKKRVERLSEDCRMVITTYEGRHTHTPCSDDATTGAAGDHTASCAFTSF

What follows are sequences tested against OsWRKY34 (Oryza sativa, UniProt Q0JBA9 1-250) (assay: protein-binding microarray (RPBM); PBS, 2% BSA, 51.3 ng/ul salmon testes DNA, 50 uM zinc acetate, 200 nM TF, 25 C, 1 h; high values mean tight binding). Details: protein: recombinant; tags: N-terminal polyhistidine and DsRed monomer fusion (pET32a); label: CyDye5-dUTP incorporated in the synthesized complementary strand; 3' TTTTT single-stranded linker to array surface; dsDNA, one strand shown.
How it was run: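 The binding signal is fluorescence intensity per feature, in arbitrary units, read on an Axon 4000B scanner. Polyhistidine- and DsRed-tagged transcription factors (N-terminal fusions) from E. coli BL21-CodonPlus were purified on Ni–NTA and applied at 200 nM for 1 h at 25 °C to a double-stranded, BSA-blocked custom Agilent array in buffer with 50 µM zinc acetate.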

Sequence | binding signal
GAAGCTCTCTTCTCTCTCTCTACTTGCCATGTCCGGCCATCGGAGTCACCTAGTGCAG | 8900 fluorescence intensity (a.u.)
TCTCTTACTGATTTTCCTCCAGCACAGACGAGCACCACGCCGGAGTCACCTAGTGCAG | 8360 fluorescence intensity (a.u.)
CTTCTTATCTCCCATATCTTAGGGTGTGTTTCGTTTTATGCGGAGTCACCTAGTGCAG | 8050 fluorescence intensity (a.u.)
TTTTCTTCTCTTTCCTTTTCTTTTTTCCCTTCTTTTTTTCCGGAGTCACCTAGTGCAG | 8650 fluorescence intensity (a.u.)
GCCCGCCGCTCCGTGCCCTAGCGCCGCCGCCGCCGCCGCCCGGAGTCACCTAGTGCAG | 8110 fluorescence intensity (a.u.)
GCTATTGTTTTTTATTTATTAAAATATTGAATTTATCTCTCGGAGTCACCTAGTGCAG | 10100 fluorescence intensity (a.u.)
AGGATCTCAATTGCAAATGGACACGGGTGGGTAACAATTACGGAGTCACCTAGTGCAG | 11200 fluorescence intensity (a.u.)
CATCTTCCTTCCTACTCACGCCGCCGTCCGATCCATCAACCGGAGTCACCTAGTGCAG | 10400 fluorescence intensity (a.u.)
AAAGCATCATTATTTTTTTTATTCCTTTCCATGCTTATACCGGAGTCACCTAGTGCAG | 11100 fluorescence intensity (a.u.)
CGTCTTTTCTATCCAGGTTCATTGTAATGGGTCATATTCTCGGAGTCACCTAGTGCAG | 16000 fluorescence intensity (a.u.)
TTCTGGGCATTAGATTTGTGATGTTTCTTGTGCAGATTTTCGGAGTCACCTAGTGCAG | 9050 fluorescence intensity (a.u.)
TACCGTTCCTACTATAATTAAGCACGGCCGTTAATTGTCCCGGAGTCACCTAGTGCAG | 8180 fluorescence intensity (a.u.)
CCGTTTCAAAATGTTTGACACCGTTGACTTTTTAGTACGTCGGAGTCACCTAGTGCAG | 21100 fluorescence intensity (a.u.)
AATCATGTGTTATTGGCTTATTCTCCCATTGTACGTATCTCGGAGTCACCTAGTGCAG | 9360 fluorescence intensity (a.u.)
TCGTATCTCCTGCTTTGATCTTAGTTCTTGAGTATTCCATCGGAGTCACCTAGTGCAG | 8470 fluorescence intensity (a.u.)
GGTTTCTGTTATCGGTTTTCCAGTTTCAGTCCTATTGTAACGGAGTCACCTAGTGCAG | 10900 fluorescence intensity (a.u.)
TATCATCCATCCATCCAGCCAGCCAAACAGTAGCAACATGCGGAGTCACCTAGTGCAG | 8540 fluorescence intensity (a.u.)
CTTCTTCTCGTTCTCCTCCACCATTTTCAGCAGCAGATCCCGGAGTCACCTAGTGCAG | 8150 fluorescence intensity (a.u.)
GACTGCTACTGTCGCCGCCTTCGTTCCTCTTCAGCACTACCGGAGTCACCTAGTGCAG | 8110 fluorescence intensity (a.u.)
GTCTCTCTCCCTTCTCAAGTGTGCCTCATTTGTTGACTTTCGGAGTCACCTAGTGCAG | 12500 fluorescence intensity (a.u.)
GCCTCGACATGCGCGTCCGATTTATCCCCTTTTTTTTTTTCGGAGTCACCTAGTGCAG | 8470 fluorescence intensity (a.u.)

A run of entries taken from the entries so far, as a working copy:
Sequence | binding signal
AGGATCTCAATTGCAAATGGACACGGGTGGGTAACAATTACGGAGTCACCTAGTGCAG | 11200 fluorescence intensity (a.u.)
CATCTTCCTTCCTACTCACGCCGCCGTCCGATCCATCAACCGGAGTCACCTAGTGCAG | 10400 fluorescence intensity (a.u.)
AAAGCATCATTATTTTTTTTATTCCTTTCCATGCTTATACCGGAGTCACCTAGTGCAG | 11100 fluorescence intensity (a.u.)
CGTCTTTTCTATCCAGGTTCATTGTAATGGGTCATATTCTCGGAGTCACCTAGTGCAG | 16000 fluorescence intensity (a.u.)
TTCTGGGCATTAGATTTGTGATGTTTCTTGTGCAGATTTTCGGAGTCACCTAGTGCAG | 9050 fluorescence intensity (a.u.)
TACCGTTCCTACTATAATTAAGCACGGCCGTTAATTGTCCCGGAGTCACCTAGTGCAG | 8180 fluorescence intensity (a.u.)
CCGTTTCAAAATGTTTGACACCGTTGACTTTTTAGTACGTCGGAGTCACCTAGTGCAG | 21100 fluorescence intensity (a.u.)
AATCATGTGTTATTGGCTTATTCTCCCATTGTACGTATCTCGGAGTCACCTAGTGCAG | 9360 fluorescence intensity (a.u.)
TCGTATCTCCTGCTTTGATCTTAGTTCTTGAGTATTCCATCGGAGTCACCTAGTGCAG | 8470 fluorescence intensity (a.u.)
GGTTTCTGTTATCGGTTTTCCAGTTTCAGTCCTATTGTAACGGAGTCACCTAGTGCAG | 10900 fluorescence intensity (a.u.)

(cont.)

Sequence | binding signal
AAACCATGCGGCGCACGAGCCACTCGCACTCGCACTCGCACGGAGTCACCTAGTGCAG | 9360 fluorescence intensity (a.u.)
GAACGTGGTGCCTTTTTTCGAGCTGTCTTAATAATATAATCGGAGTCACCTAGTGCAG | 8830 fluorescence intensity (a.u.)
TTTTCCTTTGGATTTTCTACGATCTGTTTCCACATCCGAACGGAGTCACCTAGTGCAG | 8310 fluorescence intensity (a.u.)
ATCTTGTTTTTTTCATCTTCCATTTTTCAATCATTTATTTCGGAGTCACCTAGTGCAG | 11800 fluorescence intensity (a.u.)
ATGACGTCCAAAGCTTCACCTTTTTTTTTATATATAAACCCGGAGTCACCTAGTGCAG | 8260 fluorescence intensity (a.u.)
ACCTTTCACGCCGCCGCACTACCTCTCCACCCTCTCGCGGCGGAGTCACCTAGTGCAG | 8380 fluorescence intensity (a.u.)
GTTGCATTGTATAACTCTAGTACTCTACTTTGTTTTAATACGGAGTCACCTAGTGCAG | 8150 fluorescence intensity (a.u.)
GGGAGTGTGGAGGTGTTGTGCTGCGGCGTGGGTGTGTTGGCGGAGTCACCTAGTGCAG | 8640 fluorescence intensity (a.u.)
TCTGTTTGTTCTATTTGTTTGACCTTTTCGTGTAAAGGGTCGGAGTCACCTAGTGCAG | 8400 fluorescence intensity (a.u.)
TGCAGTGTGTGTATGATAGGTGTGACCATATATTAATAGTCGGAGTCACCTAGTGCAG | 9480 fluorescence intensity (a.u.)
GTTTCCTTAGTTCCTTCGAAACAAGATTGTTTTTTATCACCGGAGTCACCTAGTGCAG | 8470 fluorescence intensity (a.u.)
ACTCTCTCACCTTCTCACGCCTCATCGCTTTGTTCTCATCCGGAGTCACCTAGTGCAG | 9840 fluorescence intensity (a.u.)
GCCGCCCACCGCTTGACCTCCCTCCGTGGCGCTGCCTCCACGGAGTCACCTAGTGCAG | 8320 fluorescence intensity (a.u.)
CGCCGCGTTCCCAACTCCATGTCCCGTCTTCTTCCCTGAACGGAGTCACCTAGTGCAG | 13900 fluorescence intensity (a.u.)
GTGGTAATTCTGTAGTTGTTTTTTTTTCGAGTTCTTGTGTCGGAGTCACCTAGTGCAG | 10300 fluorescence intensity (a.u.)
TATGGCAATCGTTTTTTCCTTAATACTTGAATTCTAGATACGGAGTCACCTAGTGCAG | 8180 fluorescence intensity (a.u.)
TCTCTCCCTGTGAATTGTGGGTGTGTTTAGTTCGCGAAAACGGAGTCACCTAGTGCAG | 10300 fluorescence intensity (a.u.)
TCAGGTCAATCCGGCCGTTTCATACGCGCGACTCCGCGAGCGGAGTCACCTAGTGCAG | 9420 fluorescence intensity (a.u.)
AAGACGAATGGTCAAACATTGTGGAAAAGTCAACGGCATTCGGAGTCACCTAGTGCAG | 10000 fluorescence intensity (a.u.)
AACTATCAACACCATTGCCTATTGCCGCACCACGCTATCTCGGAGTCACCTAGTGCAG | 10400 fluorescence intensity (a.u.)
TCCCTCCACCACCACCACCACCACCGCACAACCCAGCTTTCGGAGTCACCTAGTGCAG | 9220 fluorescence intensity (a.u.)
